Strings that start with PEPTIDE1 are HELM notation: dots part the residues, brackets hold end groups and non-standard residues.
Assay: general procedure: hybrid (solid and solution phase) peptide synthesis; 2-chlorotrityl chloride resin (2-CTC); DIC/oxyma/DIPEA (SPPS); NHS/DCC (solution C-terminal coupling)
Settings: TFA salt

Substance | step yield
PEPTIDE1{[hCys].[b3hTyr].C.[2Amb]}$PEPTIDE1,PEPTIDE1,1:R3-3:R3$$$V2.0 | 11%
PEPTIDE1{[hCys].[b3hTyr].C.[3Amb]}$PEPTIDE1,PEPTIDE1,1:R3-3:R3$$$V2.0 | 19%
PEPTIDE1{[hCys].[b3hTyr].C.[4Amb]}$PEPTIDE1,PEPTIDE1,1:R3-3:R3$$$V2.0 | 15%

Source: paper PMC12378631 (RSC Medicinal Chemistry, 2025)
